In patent publication US8273724B2, “Melanoma antigens and their use in diagnostic and therapeutic methods” (The United States of America, as represented by the …, priority 1994, dated 2012):
At least one peptide structure holds a part that was inferred or is arguable (an end, a ring closure or a residue).

Target: HLA-A2.1 (Homo sapiens, UniProt P04439, D140Y/D185E/D98H/E176V/E277Q/G131W/G231S/I119V/I121R/I166T/I218V/L300P/L318F/N151K/N90K/P208A/P217A/Q86G/Q94H/R138H/R169H/T345S)
Assay: Peptide binding assay to HLA-A2.1, competition with radiolabeled HBc18-27 (Example 4)
Conditions: standard peptide 50% inhibition at 5 nM

Question: `CC(C)C[C@H](NC(=O)[C@H](CCCNC(=N)N)NC(=O)[C@H](CC(C)C)NC(=O)[C@@H](NC(=O)[C@H](C)NC(=O)[C@@H](NC(=O)CNC(=O)[C@H](CC(=O)O)NC(=O)[C@H](CC(C)C)NC(=O)[C@@H](N)CC(C)C)[C@@H](C)O)[C@@H](C)O)C(=O)O` [G10-4] was tested. Which “Ratio to Standard: binding affinity of the sample peptide to that of the standard peptide” value did it give?
Answer: 0.01
